Reference: PubChem BioAssay AID1259308 (NCATS, 2017)
Shown is one part, drawn at random, of about 59,000 deposited reagents. In the full data, about 1,510 (2.6%) are marked active. 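Calls use total luciferase alone and ignore viability, so some active siRNAs may act by altering cell number.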 Entries without a mark were called inactive. The numbers tell different reagents against one gene apart.

Assay: 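Genes whose loss raises luciferase production in HEK293 cells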 (primary screen)
Cells: human HEK293 embryonic kidney cells stably expressing firefly luciferase (HEK-CMV-Luc2-Hygro)
Reagent: single siRNA against human genes, 0.8 pmol siRNA per well
Timing: 72 h
Measured: 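Luciferase light (ONE-Glo) measured on one replicate plate set and viability (CellTiter-Glo) on the other, scaled to a negative control siRNA, with robust z-scores and luciferase per cell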
Direction: total luciferase, z-score and total luciferase, % of control: higher = more reporter protein produced; luciferase per cell, z-score: higher = more reporter output per viable cell; viable cells, % of control: higher = more viable cells
Hit rule: 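Active when the median/MAD z-score for overall luciferase is greater than 3; a gene was taken forward for validation with new siRNAs if at least two of its three siRNAs passed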
Meaning of the calls: active = raised luciferase; inactive = no rise

| gene symbol | siRNA no. | total luciferase, z-score | total luciferase, % of control | luciferase per cell, z-score | viable cells, % of control |
| --- | --- | --- | --- | --- | --- |
| HOXA10 (homeobox A10) | 1 | 0.478 | 91.4 | -0.222 | 108 |
| HOXA10 (homeobox A10) | 2 | -0.0436 | 81 | -0.491 | 103 |
| HOXA10 (homeobox A10) | 3 | -0.117 | 79.6 | -0.604 | 104 |
| FZD5 (frizzled class receptor 5) | 1 | 0.882 | 99.4 | 0.133 | 107 |
| FZD5 (frizzled class receptor 5) | 2 | 0.399 | 89.8 | 0.28 | 93.2 |
| FZD5 (frizzled class receptor 5) | 3 | 2.26 | 127 | 1.68 | 91 |
| IRF2BP1 (interferon regulatory factor 2 binding protein 1) | 1 | -0.316 | 75.6 | -0.328 | 92.1 |
| IRF2BP1 (interferon regulatory factor 2 binding protein 1) | 2 | -0.781 | 66.4 | -1.03 | 97.2 |
| IRF2BP1 (interferon regulatory factor 2 binding protein 1) | 3 | 0.221 | 86.3 | 0.762 | 78.9 |
| ACTN3 (actinin alpha 3) | 1 | -0.581 | 70.3 | -0.395 | 87.2 |
| ACTN3 (actinin alpha 3) | 2 | 0.772 | 97.2 | 1 | 83.4 |
| ACTN3 (actinin alpha 3) | 3 | -0.326 | 75.4 | -0.0244 | 84.8 |
| NAB2 (NGFI-A binding protein 2) | 1 | 0.223 | 86.3 | -0.631 | 114 |
| NAB2 (NGFI-A binding protein 2) | 2 | -0.091 | 80.1 | -0.51 | 102 |
| NAB2 (NGFI-A binding protein 2) | 3 | -0.129 | 79.3 | -0.292 | 95.7 |
| H3C12 (H3 clustered histone 12) | 1 | -2.96 | 23.1 | -3.12 | 58.5 |
| H3C12 (H3 clustered histone 12) | 2 | -0.487 | 72.2 | -0.221 | 85.5 |
| H3C12 (H3 clustered histone 12) | 3 | -2.77 | 26.8 | -2.17 | 53 |
| IGSF5 (immunoglobulin superfamily member 5) | 1 | -0.369 | 74.5 | -0.119 | 85.9 |
| IGSF5 (immunoglobulin superfamily member 5) | 2 | 0.103 | 83.9 | 0.348 | 85.6 |
| IGSF5 (immunoglobulin superfamily member 5) | 3 | -0.278 | 76.4 | -0.726 | 103 |
| DISC1 (DISC1 scaffold protein) | 1 | 2.19 | 126 | 0.902 | 111 |
| DISC1 (DISC1 scaffold protein) | 2 | 1.15 | 105 | 1.02 | 89.6 |
| DISC1 (DISC1 scaffold protein) | 3 | 0.0904 | 83.7 | -0.243 | 99.7 |
| ATP6V0D1 (ATPase H+ transporting V0 subunit d1) | 1 | 0.378 | 89.4 | -0.188 | 105 |
| ATP6V0D1 (ATPase H+ transporting V0 subunit d1) | 2 | 0.178 | 85.4 | -0.18 | 100 |
| ATP6V0D1 (ATPase H+ transporting V0 subunit d1) | 3 | -0.021 | 81.5 | -0.261 | 97.5 |

Next part; the last 5 above are carried over.
| gene symbol | siRNA no. | total luciferase, z-score | total luciferase, % of control | luciferase per cell, z-score | viable cells, % of control |
| --- | --- | --- | --- | --- | --- |
| DISC1 (DISC1 scaffold protein) | 2 | 1.15 | 105 | 1.02 | 89.6 |
| DISC1 (DISC1 scaffold protein) | 3 | 0.0904 | 83.7 | -0.243 | 99.7 |
| ATP6V0D1 (ATPase H+ transporting V0 subunit d1) | 1 | 0.378 | 89.4 | -0.188 | 105 |
| ATP6V0D1 (ATPase H+ transporting V0 subunit d1) | 2 | 0.178 | 85.4 | -0.18 | 100 |
| ATP6V0D1 (ATPase H+ transporting V0 subunit d1) | 3 | -0.021 | 81.5 | -0.261 | 97.5 |
| EMCN (endomucin) | 1 | 0.994 | 102 | 0.568 | 97.8 |
| EMCN (endomucin) | 2 | -0.573 | 70.5 | -0.0589 | 80 |
| EMCN (endomucin) | 3 | 0.626 | 94.3 | -0.00128 | 105 |
| GLIPR1 (GLI pathogenesis related 1) | 1 | 0.249 | 86.8 | -0.186 | 102 |
| GLIPR1 (GLI pathogenesis related 1) | 2 | -1.34 | 55.3 | -1.4 | 89.3 |
| GLIPR1 (GLI pathogenesis related 1) | 3 | 1.19 | 106 | 1.32 | 83.3 |
| GATA3 (GATA binding protein 3) | 1 | 1.92 | 120 | 1.77 | 84.3 |
| GATA3 (GATA binding protein 3) | 2 | -0.773 | 66.5 | -0.725 | 90 |
| GATA3 (GATA binding protein 3) | 3 | -0.16 | 78.7 | -0.833 | 110 |
| ADCY10 (adenylate cyclase 10) | 1 | -1.15 | 59 | -1.35 | 94.1 |
| ADCY10 (adenylate cyclase 10) | 2 | 0.786 | 97.5 | 0.253 | 102 |
| ADCY10 (adenylate cyclase 10) | 3 | 1.13 | 104 | 1.16 | 85.9 |
| IQCF1 (IQ motif containing F1) | 1 | 1.35 | 109 | 1.65 | 78.7 |
| IQCF1 (IQ motif containing F1) | 2 | 1.19 | 105 | 2.17 | 66.5 |
| IQCF1 (IQ motif containing F1) | 3 | 0.444 | 90.7 | 0.716 | 84 |
| KIRREL1 (kirre like nephrin family adhesion molecule 1) | 1 | 0.401 | 89.9 | 0.755 | 82.3 |
| KIRREL1 (kirre like nephrin family adhesion molecule 1) | 2 | -0.561 | 70.7 | -0.468 | 89.4 |
| KIRREL1 (kirre like nephrin family adhesion molecule 1) | 3 | 0.15 | 84.9 | 0.845 | 75.9 |
| FEN1 (flap structure-specific endonuclease 1) | 1 | -1.1 | 59.9 | -0.638 | 79.2 |
| FEN1 (flap structure-specific endonuclease 1) | 2 | -0.264 | 76.6 | -0.866 | 108 |
| FEN1 (flap structure-specific endonuclease 1) | 3 | -0.335 | 75.2 | -0.748 | 102 |
| KCNE5 | 1 | 0.784 | 97.5 | 0.00238 | 109 |
| KCNE5 | 2 | -0.194 | 78 | -0.157 | 90.9 |
| KCNE5 | 3 | -1.25 | 57 | -1.36 | 91 |
| SOX6 (SRY-box transcription factor 6) | 1 | 0.347 | 88.8 | 0.274 | 92.3 |
| SOX6 (SRY-box transcription factor 6) | 2 | -0.581 | 70.3 | -1.13 | 106 |
| SOX6 (SRY-box transcription factor 6) | 3 | -0.468 | 72.6 | 0.261 | 75.7 |
| CANX (calnexin) | 1 | -0.992 | 62.2 | 0.0493 | 68.6 |
| CANX (calnexin) | 2 | -0.443 | 73.1 | -0.588 | 95.3 |
| CANX (calnexin) | 3 | -0.148 | 78.9 | 0.000246 | 88.2 |
